Protein sequences can lack the tags named with them. For at least one entry, the source does not settle the construct or the ends of the probe.

The data set relates to T1, phiFa_44 RNA polymerase (QKE11339.1) (Thermus phage phiFa).
T1 sequence: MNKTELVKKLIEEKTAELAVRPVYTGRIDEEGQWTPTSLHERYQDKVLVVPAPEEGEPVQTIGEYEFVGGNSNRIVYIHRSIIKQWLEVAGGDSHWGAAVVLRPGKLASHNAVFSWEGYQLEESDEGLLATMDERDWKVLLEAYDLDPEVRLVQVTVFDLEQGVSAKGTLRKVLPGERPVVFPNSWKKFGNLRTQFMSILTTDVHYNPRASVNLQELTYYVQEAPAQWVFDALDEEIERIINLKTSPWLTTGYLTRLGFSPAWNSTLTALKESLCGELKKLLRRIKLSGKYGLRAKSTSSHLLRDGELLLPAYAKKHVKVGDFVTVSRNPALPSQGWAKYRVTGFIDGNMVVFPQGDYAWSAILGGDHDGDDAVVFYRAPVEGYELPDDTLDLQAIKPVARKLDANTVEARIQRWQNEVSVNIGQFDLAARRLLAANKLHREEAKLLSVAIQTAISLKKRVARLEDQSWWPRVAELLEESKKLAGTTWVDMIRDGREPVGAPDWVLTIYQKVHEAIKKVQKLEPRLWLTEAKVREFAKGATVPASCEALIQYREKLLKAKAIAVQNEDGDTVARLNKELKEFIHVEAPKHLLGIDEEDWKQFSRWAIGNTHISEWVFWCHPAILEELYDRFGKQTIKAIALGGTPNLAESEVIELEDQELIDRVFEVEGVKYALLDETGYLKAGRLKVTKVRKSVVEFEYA
As to the kind of experiment: activity assay. The settings on record: purified recombinant protein.

As to “AATTCTAATACGACTCACTATAGTATCCGGTGGGCCAGCCAGCGTACCGTCCTCGAGGCTGTGGATTGCGCGGCTTCCCGCCCGCAGCCGCGCATCTAGTCCTCCCGCCACCACCACCTCTGCAGGAAGAGGTGGGCGAAGAGACGAAGAGAGGTGAAAGAGAGAAGAGGCGAAGGCCGGGTGTCCCGCGCCCGGCTCGCCTTACGGTGCCACGCCACCCCGCTCGCGCAAGGCTCCGCGCGGAGCGCGGCCCCTTCGGGCTTACGGCCTTGCGCTCGCGGGGACCCCGGCGTGGCAGGGCTCCGCCCCGAGCCGGGCGCGTAGAGGACACCCGGCTCAAGGAGGTCAAAGATGAACAAGACCGAACTTGTCAAAAAGTTGATTGAAGAGAAGACGGCGGAGTTGGCTGTTAGGCCGGTGTACACCGGTCGAATCGACGAAGAAGGTCAGTGGACTCCGACTTCTCTG (double strand) [phiFa phage dsDNA template]”, the “activity on this sequence” value (in vitro transcription with rNTPs gives RNA product, 1x isothermal amplification buffer, 65 C) is reported as “active”.

“CGATGGCCGTAGATAAGGCGCCCGGGGACGACCACGTCAAGGCGCAGTTC [Cy3 ssDNA template]”: the “activity on this sequence” value (IVT forms RNA:DNA duplex, template band shift abolished by RNase H, 2 mM MgCl2, 35 mM NaCl, pH 8.8, 65 C, label: 5' Cy3, single-stranded DNA) is given as “active”.

“GCGCTCCAAAAGCAGGGGCGGCAAGTCCAGTCTCCAGACTTGCCGCCGAGTGTACCTGCTTGCTACAGCCCTAATTATACCACAAACGCC [ssDNA template A]”: the “activity on this sequence” value (IVT gives clear ssRNA transcript of about 75-80 nt, 250 nM protein, 100 nM template, 65 C, single-stranded DNA) is “active”.

(Values after patent US20250101497.)
